# From PubChem BioAssay AID2685 (National Center for Advancing Translational Sciences (NCATS), 2010)
# This is one part of the list. Shown are side measurements of this screen, not its main read-out; they come without a call. Compounds called inactive in the main read-out are mostly missing here. The note in brackets gives the kind of curve behind each potency; many fits are weak.
# Assay: qHTS Assay for Lipid Storage Modulators in Drosophila S3 Cells;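 on cell number change: cells counted by Cell Tracker Red CMTPX staining in the red channel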
# Details: BODIPY lipid droplet fluorescence, 18-24 h; for cell number change: measured here: cell count max response, cells fed with added oleic acid
# Method in brief: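 Drosophila S3 cells loaded with oleic acid (400 uM, as added) and compounds at several concentrations; lipid droplets imaged by 488-nm laser-scanning cytometry, 500–530 nm intensity and object ratio to cell channel. Percent activity normalized to 20 uM Triacsin C.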
# [1] = measured here: lipid fluorescence (Fed channel) AC50, cells fed with added oleic acid
# [2] = measured here: cell number channel AC50, cells fed with added oleic acid
Compound,cell number change [%],AC50 [1],AC50 [2]
COCc1cc(C(C)=O)ccc1OC,3.6,"1.03 µM [falling, partial curve]",–
O=C(O)C1C2CCC(C2)C1C(=O)Nc1nc2ccccc2s1 (configuration not stated),9.61,–,–
COc1cccc(-c2cc3nc4c(c(N5CCC6(CC5)OCCO6)n3n2)CCC4)c1,-38.9,"32.6 µM [falling, partial curve, poor fit]","1.16 µM [falling, partial curve]"
COc1cccc(-c2nc(-c3ccccc3)no2)c1,1.79,"1.3 µM [rising, full curve]",–
CS(=O)(=O)N(CC(=O)Nc1ccccc1-c1ccccc1)c1ccc(F)cc1,12.9,"0.206 µM [rising, full curve, poor fit]",–
O=[N+]([O-])c1ccc(C2CN=C(Nc3ccccc3)S2)cc1 (configuration not stated),4.47,"5.17 µM [rising, partial curve, poor fit]",–
COc1cccc(NC(=O)CN2C(=O)NC(CCc3ccccc3)C2=O)c1 (configuration not stated),0.402,"29.1 µM [rising, single point]",–
Cn1c2ccccc2c(=O)c2ccc(C#Cc3ccccn3)cc21,–,"18.4 µM [falling, partial curve]",–
COc1ccc2cc(C)c3nnc(SCC(=O)Nc4nc(-c5ccccc5)cs4)n3c2c1,-21.9,"0.461 µM [falling, full curve]",–
CCNC(=O)Cn1cc(C(F)(F)F)cc(Cl)c1=O,-31.9,"18.4 µM [falling, partial curve, poor fit]","1.16 µM [falling, full curve, poor fit]"
Fc1cccc(F)c1-n1c(CN2CCOCC2)csc1=S,24.3,"1.84 µM [rising, single point]",–
CC(C)Sc1nc(O)c(Cc2ccccc2)c(=O)[nH]1,-19.9,–,"0.00411 µM [falling, full curve, poor fit]"
O=C(CCCSc1nc2ccccc2s1)NCc1ccco1,–,"10.3 µM [falling, partial curve]",–
CCOc1ccc(C2/C(=C(/O)c3ccc(Cl)cc3)C(=O)C(=O)N2CCCN(C)C)cc1OC (configuration not stated),4.1,"6.51 µM [rising, single point]",–
COc1ccccc1N1CCN(c2ccc([N+](=O)[O-])cc2Cl)CC1,-43.9,"0.58 µM [falling, full curve]","2.31 µM [falling, full curve]"
CCCCN(C(=O)c1[nH]c(C)c(C(C)=O)c1C)c1c(N)n(CCCC)c(=O)[nH]c1=O,-42.8,"5.8 µM [falling, partial curve]","2.06 µM [falling, full curve]"
O=C(O)COc1ccc(-c2nccc(-c3cccs3)n2)cc1,63,–,–
CCOC(=O)C1CCN(S(=O)(=O)c2ccc3c(c2)CC(C)N3C(=O)C2CCC2)CC1 (configuration not stated),12.6,–,–
COc1ccc(NS(=O)(=O)c2ccc(NC(=S)NCC3CCCO3)cc2)cc1 (configuration not stated),13.6,"0.731 µM [falling, full curve]",–

# Some of the entries so far, with tabs:
Compound	cell number change [%]	AC50 [1]	AC50 [2]
O=C(O)C1C2CCC(C2)C1C(=O)Nc1nc2ccccc2s1 (configuration not stated)	9.61	–	–
COc1cccc(-c2cc3nc4c(c(N5CCC6(CC5)OCCO6)n3n2)CCC4)c1	-38.9	32.6 µM [falling, partial curve, poor fit]	1.16 µM [falling, partial curve]
COc1cccc(-c2nc(-c3ccccc3)no2)c1	1.79	1.3 µM [rising, full curve]	–
CS(=O)(=O)N(CC(=O)Nc1ccccc1-c1ccccc1)c1ccc(F)cc1	12.9	0.206 µM [rising, full curve, poor fit]	–
O=[N+]([O-])c1ccc(C2CN=C(Nc3ccccc3)S2)cc1 (configuration not stated)	4.47	5.17 µM [rising, partial curve, poor fit]	–
COc1cccc(NC(=O)CN2C(=O)NC(CCc3ccccc3)C2=O)c1 (configuration not stated)	0.402	29.1 µM [rising, single point]	–
Cn1c2ccccc2c(=O)c2ccc(C#Cc3ccccn3)cc21	–	18.4 µM [falling, partial curve]	–
COc1ccc2cc(C)c3nnc(SCC(=O)Nc4nc(-c5ccccc5)cs4)n3c2c1	-21.9	0.461 µM [falling, full curve]	–
CCNC(=O)Cn1cc(C(F)(F)F)cc(Cl)c1=O	-31.9	18.4 µM [falling, partial curve, poor fit]	1.16 µM [falling, full curve, poor fit]
Fc1cccc(F)c1-n1c(CN2CCOCC2)csc1=S	24.3	1.84 µM [rising, single point]	–
CC(C)Sc1nc(O)c(Cc2ccccc2)c(=O)[nH]1	-19.9	–	0.00411 µM [falling, full curve, poor fit]

# Further compounds follow:

Compound,cell number change [%],AC50 [1],AC50 [2]
O=C(CCN1C(=O)c2ccccc2C1=O)NC(=S)Nc1ccccc1Cl,11.5,"18.4 µM [rising, single point]",–
CC(C)CC(=O)C1=C(O)C(=O)N(Cc2ccccc2)C1c1ccccc1 (configuration not stated),10.6,"1.3 µM [rising, full curve]",–
COC(=O)c1ccc2c(=O)n(CCCCCC(=O)N3CCN(c4ccccc4)CC3)c(=O)[nH]c2c1,66.4,"0.0651 µM [falling, full curve, poor fit]","14.6 µM [rising, single point]"
C/C(=N\NC(=O)c1cc2ccccc2cc1O)c1ccc(C)o1,-36.1,–,"29.1 µM [falling, single point]"
CC(=O)N1C(C)(C)CC(=NOC(=O)c2ccccc2)CC1(C)C,-48.2,"11.6 µM [falling, partial curve]","32.6 µM [falling, single point]"
CCC(C(=O)NC1C(=O)N2C(C(=O)O)=C(CSc3nnc(C)s3)CSC12)c1ccccc1 (configuration not stated),8.14,"29.1 µM [rising, single point]",–
O=C(OC(C(=O)NCc1ccc(F)cc1)c1ccccc1)c1ccco1 (configuration not stated),19.2,–,–
COCCN(C(=O)COC(=O)Cc1ccc(Cl)cc1Cl)c1c(N)n(Cc2ccccc2)c(=O)[nH]c1=O,-10.1,"29.1 µM [falling, single point]",–
Cc1ccc(OCCCC(=O)Nc2nccs2)cc1,-30.8,–,–
O=C(C[n+]1ccc(/C=N/O)cc1)N1CCCCC1,-33.1,"29.1 µM [falling, single point]","32.6 µM [falling, single point]"
O=C(CCN1C(=O)COc2ccccc21)NCCCN1CCc2ccccc2C1,-17.9,"0.651 µM [falling, single point]","0.651 µM [falling, full curve, poor fit]"
O=C(Nc1ccsn1)c1ccc(Cl)cc1Cl,13.6,"4.61 µM [rising, partial curve, poor fit]",–
CC(=O)c1cccc(CN2CCC(C(=O)Nc3ccc(Oc4cccnc4)cc3)CC2)c1,50.1,"0.58 µM [rising, full curve, poor fit]","23.1 µM [rising, single point]"
CCOC(=O)N1CCN(C(=O)Nc2ccc3nc(C)sc3c2)CC1,26.6,"10.3 µM [rising, partial curve, poor fit]",–
O=S(=O)(c1ccccc1)c1ncc(C(F)(F)F)cc1O,-21.7,"0.116 µM [falling, partial curve, poor fit]","0.13 µM [falling, full curve, poor fit]"
O=C(CC1(O)C(=O)Nc2cc(Cl)cc(Cl)c21)c1ccccc1O (configuration not stated),-45.2,"16.4 µM [falling, single point]","16.4 µM [falling, single point]"
CC(Sc1nnc(NC2CCCCC2)s1)C(=O)Nc1ccc2c(c1)C(=O)c1ccccc1C2=O (configuration not stated),-3.7,"2.31 µM [rising, partial curve, poor fit]","0.259 µM [falling, full curve, poor fit]"
COC(=O)CCN(C1CCCCC1)S(=O)(=O)c1ccc(S(=O)(=O)N2CCCCC2)cc1,0.651,–,–
O=c1c(-c2ccco2)[n+]([O-])c2ccccc2n1OCc1ccccc1F,10.1,"9.2 µM [rising, partial curve]","2.91 µM [rising, partial curve, poor fit]"

Compound,cell number change [%],AC50 [1],AC50 [2]
O=C(O)C(c1ccccc1)N1CCCCC1 (configuration not stated),-14.7,–,–
CCc1nnc(NC(=O)CSc2nnc(C)c(=O)n2N)s1,-30.3,"29.1 µM [falling, single point]","7.31 µM [falling, partial curve]"
O=C(O)c1cccc(-n2sc3ccccc3c2=O)c1,-85,"3.26 µM [falling, single point]","29.1 µM [falling, single point]"
CCc1ccc(C(=O)CSc2nc3ccccc3c(=O)[nH]2)cc1,-41.1,–,"1.46 µM [falling, partial curve]"
N#CN=C(c1ccccc1)c1ccccc1,–,"18.4 µM [falling, partial curve, poor fit]",–
Cc1ccccc1SCC(=O)NNC(=O)c1ccncc1,23.8,"0.00461 µM [rising, full curve, poor fit]",–
O=C(CCc1nnc2ccc(NCCCN3CCCC3=O)nn12)NCc1ccccc1Cl,28.1,"0.92 µM [falling, single point]","0.461 µM [rising, full curve, poor fit]"
Cc1cc(C)nc(SCc2nnc(SCC(=O)Nc3ccccc3C)n2Cc2ccco2)n1,31.4,–,"0.231 µM [rising, full curve]"
CC(=O)c1ccc(NC(=O)CSC(C)C)cc1,7.79,"1.46 µM [falling, full curve, poor fit]",–
CC(=O)NC1(C(F)(F)F)C(=O)Nc2c1c(=O)[nH]c(=O)n2CC(C)C (configuration not stated),105,–,–
NC(N)=NS(=O)(=O)c1ccc(N)cc1,-5.96,"29.1 µM [rising, single point]",–
Clc1ccc(-c2nnc(-c3ccc(Br)o3)o2)c(Cl)c1,17.6,–,"6.51 µM [rising, single point]"
O=C(c1ccc(S(=O)(=O)NCc2ccco2)cc1)N1CCN(Cc2ccccc2)CC1,-2.47,–,"0.651 µM [falling, partial curve, poor fit]"
O=c1cc(N2CCc3ccccc32)[nH]c(=O)n1Cc1ccc(F)cc1,21.1,–,"2.06 µM [rising, full curve, poor fit]"
O=C(C1CCN(S(=O)(=O)c2cccc3nsnc23)CC1)N1CCc2ccccc21,14.1,"1.64 µM [falling, partial curve]",–
CCOC(=O)CSc1ccc2nnc(CCNS(=O)(=O)c3ccccc3)n2n1,10.7,"0.366 µM [rising, partial curve, poor fit]",–
COc1ccccc1CN1C(=S)SC(C)(C)C1NO (configuration not stated),–,"6.51 µM [rising, single point]","1.03 µM [rising, partial curve, poor fit]"
Cc1ccc(S(=O)(=O)N2[C@@H](c3cccc(Cl)c3)C(C(=O)O)=CC[C@H]2c2ccc(Cl)cc2)cc1,23.2,–,"3.66 µM [falling, single point]"
